# Measurements: PubChem BioAssay AID504467 (National Center for Advancing Translational Sciences (NCATS), 2011)
# Values joined by “and” are separate entries in the source; they are usually repeats but may differ in a detail not shown here. Equal values may be shown once. About 7,700 (2.3%) of roughly 330,000 compounds were called active. Inconclusive results, whose numbers are uncertain, are shown with a selection of clear calls. The call rests on the fitted dose curve; in most records, active means well fitted inhibition curve with a large enough effect; inconclusive means small, poorly fitted or top-dose-only effect, or effect the other way; inactive means flat fitted curve, though single readings scatter. Potencies of inconclusive entries are doubtful fits and often do not repeat.
# Assay: qHTS screen for small molecules that inhibit ELG1-dependent DNA repair in human embryonic kidney (HEK293T) cells expressing luciferase-tagged ELG1; further: nearly all actives have a fitted effect of over 55% in size
# Settings: HEK293T ELG1-luciferase reporter, luminescence, 16 h, DNA damage induced by 5-fluorouridine; activity change, negative = inhibition: at 46.1 µM (top of the series)
# Procedure, shortened: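 Luminescence from the luciferase reporter, measured 30 min after ONE-Glo reagent at room temperature, was the read-out. Beforehand, 2,000 cells per well were exposed for 16 hr at 37 °C to 5-fluorouridine together with compound or vehicle.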
# On the % scale 0 is the no-effect control and ±100 the full control effect; potency means the concentration at half of the fitted maximal effect.
Structure (SMILES),"activity change, negative = inhibition",Potency
CCN(CC)C1CC(=O)N(c2ccc(Br)cc2)C1=O (configuration not stated),inactive: -1.82%,
COc1ccc(N(C)S(=O)(=O)c2cccc(C(=O)N3CCN(c4ccccc4)CC3)c2)cc1,,"inconclusive: 29.1 µM [inhibitor, single point]"
C/[N+]([O-])=C\C1C(=O)CC(C)(C)CC1=O,,"inconclusive: 0.116 µM [inhibitor, full curve]"
COc1ccc(N=C/C=C2\C=C(c3ccccc3)OC(C)(C)O2)cc1,,"inconclusive: 18.4 µM [inhibitor, single point]"
COc1cccc(CNC(=O)C2=Cc3cccc(OC)c3OC2)c1,,"inconclusive: 25.9 µM [inhibitor, partial curve, poor fit]"
O=[N+]([O-])c1cc(C(F)(F)F)cc([N+](=O)[O-])c1NCCNC(=S)Nc1ccc(Cl)c(Cl)c1,,"inconclusive: 29.1 µM [inhibitor, single point]"
c1ccc(-c2nnc(N3CCN(c4ccccn4)CC3)c3ccccc23)cc1,,active: 13 µM
Nc1cc(C(=O)OCC(=O)N2CCOCC2)ccc1Cl,,"inconclusive: 16.4 µM [activator, partial curve]"
CC(=O)c1c(C)[nH]c(C(=O)OCC(=O)NCCC2=CCCCC2)c1C,inactive: -14.3%,
Cc1cc2ccccn2c1C(=O)c1cc([N+](=O)[O-])cc([N+](=O)[O-])c1,,"inconclusive: 20.6 µM [inhibitor, single point]"
c1ccc(-c2csc(N3CCOCC3)n2)cc1,,"inconclusive: 16.4 µM [activator, partial curve]"
COc1cc(C(=O)N[C@H](C(=O)NC(C)C23CC4CC(CC(C4)C2)C3)C(C)C)cc(OC)c1OC (some centres not stated),,"inconclusive: 16.4 µM [inhibitor, single point]"
COc1ccc(S(=O)(=O)N2CCCCCC2)cc1C(=O)NCc1cccs1,inactive: -0.357%,
CCCc1cc(C(=O)Nc2ccc(Cl)cn2)cs1,,"inconclusive: 0.92 µM [activator, partial curve]"
CCN(Cc1ccccc1)S(=O)(=O)c1c(C)[nH]c(C)c1C(=O)N1CCCC1,inactive: 23.8%,
CCCCN(Cc1ccccc1)C(=O)CCN1C(=O)C2C3C=CC(C3)C2C1=O (configuration not stated),inactive: -4.95%,
O=C1CCC(C(=O)OCC(=O)c2ccccc2)N1 (configuration not stated),inactive: 18.8%,
Cc1nnsc1C(=O)N/N=C/c1ccc2ccccc2c1O,,"inconclusive: 18.4 µM [inhibitor, partial curve]"
COC(=O)c1sc(S(=O)(=O)Nc2ccc(Br)cc2)c(C(=O)OC)c1C,inactive: -4.29%,
O=C(O)CN1C(=O)C(=O)N(Cc2ccccc2F)C1=O,inactive: -0.844%,
CN(C)C(=O)NC(O)C(Cl)Cl (configuration not stated),,"inconclusive: 29.1 µM [activator, single point]"
C=CCc1cccc(/C=N/NC(=O)c2ccccc2OC)c1O,,"inconclusive: 6.51 µM [inhibitor, partial curve]"
CCc1ccc(Nc2nc(N)nc(CSc3nc4ccccc4s3)n2)cc1,,"inconclusive: 29.1 µM [inhibitor, single point]"
Cn1c(=O)c2c(nc3n2CC(COc2ccc(Cl)cc2)O3)n(C)c1=O (configuration not stated),,"inconclusive: 9.2 µM [inhibitor, partial curve]"

Structure (SMILES),"activity change, negative = inhibition",Potency
O=C(NNC(=O)c1ccccc1F)c1cccc(S(=O)(=O)N2CCc3ccccc32)c1,inactive: -21.6%,
CC1(C)Cc2nc3nc(SCC(=O)NCCc4ccccc4)n(-c4ccccc4)c(=O)c3cc2CO1,,active: 4.61 µM
O=C(CC(Sc1n[nH]c(-c2ccccc2)n1)c1ccccc1)NCc1ccccc1 (configuration not stated),,"inconclusive: 20.6 µM [inhibitor, partial curve]"
COCCC(=O)N1CCC(Oc2ccc(C(=O)NCCc3cn[nH]c3)cc2)CC1,inactive: 12.8%,
CC(C)(C)c1ccc(C(=O)N2CCCN(C(=O)c3ccc(C(C)(C)C)cc3)CC2)cc1,inactive: 9.86%,
Nc1ccc(CCc2nc3ccccc3o2)cc1,,"inconclusive: 9.2 µM [activator, partial curve]"
CC(C)(C)C1CCc2c(sc3nc(SCC(=O)O)nc(N)c23)C1 (configuration not stated),,"inconclusive: 14.6 µM [activator, partial curve]"
CCC(=O)c1ccc(OCC(=O)Nc2cc(S(=O)(=O)N3CCCCC3)ccc2OC)cc1,,"inconclusive: 20.6 µM [inhibitor, partial curve, poor fit]"
CCOc1ccc(OCC)c(S(=O)(=O)NCCOC23CC4CC(CC(C4)C2)C3)c1,,"inconclusive: 29.1 µM [inhibitor, partial curve, poor fit]"
CC1CN(S(=O)(=O)c2cccc(C(=O)N(Cc3nnc(-c4ccccc4Cl)o3)C3CC3)c2)CC(C)O1 (configuration not stated),,active: 5.8 µM
Cc1[nH]c(=O)[nH]c(=O)c1S(=O)(=O)N1CCCC(C(=O)NCCc2ccc(Cl)cc2)C1 (configuration not stated),inactive: -2.06%,
Cc1cccc(N2CCN(C(=O)CCn3c(=O)[nH]c4ccccc4c3=O)CC2)c1C,,active: 9.2 µM
Cn1c(=O)c2c(nc(CN3CCN(C(=O)c4ccco4)CC3)n2CCCc2ccccc2)n(C)c1=O,,"inconclusive: 18.4 µM [inhibitor, partial curve]"
CCN1CCN(C(=O)COCc2cc(-c3ccc4c(c3)OCO4)on2)CC1,,"inconclusive: 18.3 µM [activator, single point]"
O=C1OCC2=C1C(c1ccc(F)cc1)c1cc3c(cc1N2)OCCO3 (configuration not stated),inactive: -4.89%,
Cc1cc(C)n2nc(C(=O)NCCc3ccccc3)nc2n1,,"inconclusive: 18.4 µM [activator, partial curve]"
Cc1ccc(-c2cc(C(F)(F)F)n3ncc(C(=O)N4CCCCC4c4cccnc4)c3n2)cc1 (configuration not stated),,"inconclusive: 1.83 µM [inhibitor, partial curve]"
Cc1cc(/C=N\O)c(C)n1-c1ccncc1,inactive: -0.468%,
COc1ccc(CCNC(=O)CCN2C(=O)[C@@H]3Cc4ccccc4CN3C2=O)cc1OC,,"inconclusive: 23.1 µM [inhibitor, single point]"
Cc1ccc(CS(=O)(=O)Cc2ccc(C(=O)NCCCN3CCOCC3)o2)cc1,,"inconclusive: 23.1 µM [activator, partial curve, poor fit]"
CCCCCCCCSc1nnc(CSc2nc3nc(C)cc(C)n3n2)o1,inactive: 4.2%,
Cc1ccc(-c2cc(C(=O)NCCN3CCOCC3)c3ccccc3n2)o1,inactive: -9.98%,
CCCc1cc(=O)oc2cc(OCC(=O)N3CCOCC3)c(Cl)cc12,,"inconclusive: 32.6 µM [activator, single point]"
Clc1ccc(N=C2SCC3CCCCN23)cc1 (configuration not stated),,"inconclusive: 18.3 µM [activator, partial curve]"

# One compound at a time, as listed above:
# Cn1c(=O)c2c(nc(CN3CCN(C(=O)c4ccco4)CC3)n2CCCc2ccccc2)n(C)c1=O as listed: Potency: inconclusive: 18.4 µM [inhibitor, partial curve]
# Cc1ccc(-c2cc(C(=O)NCCN3CCOCC3)c3ccccc3n2)o1 as listed: activity change, negative = inhibition: inactive: -9.98%
# Cc1ccc(-c2cc(C(F)(F)F)n3ncc(C(=O)N4CCCCC4c4cccnc4)c3n2)cc1 (configuration not stated) as listed: Potency: inconclusive: 1.83 µM [inhibitor, partial curve]
# CC(C)(C)c1ccc(C(=O)N2CCCN(C(=O)c3ccc(C(C)(C)C)cc3)CC2)cc1 as listed: activity change, negative = inhibition: inactive: 9.86%

# (cont.)

Structure (SMILES),"activity change, negative = inhibition",Potency
O=C(COc1ccc2c(c1)OCO2)Nc1ccccc1C(F)(F)F,,"inconclusive: 16.4 µM [activator, partial curve]"
Cc1cc(C)[n+]2n1C(=O)C(c1ccccc1)=C2[O-],,"inconclusive: 13 µM [activator, partial curve, poor fit] and inconclusive: 20.6 µM [activator, partial curve]"
COC(=O)c1cc(C(=O)Cc2ccccc2)c[nH]1,,"inconclusive: 29.1 µM [activator, single point]"
CCCc1nnc(NC(=O)c2cc3ccccc3o2)s1,,"inconclusive: 14.6 µM [activator, partial curve]"
Cc1ccccc1CS(=O)(=O)c1ncc(Cl)c(C(=O)Nc2ccc(F)cc2)n1,,"inconclusive: 29.1 µM [inhibitor, single point]"
CCC(C)N(C(=O)CSc1nc(-c2ccccc2)cs1)C1CCS(=O)(=O)C1 (configuration not stated),inactive: -2.54%,
N#CC1=C(N)N(c2ccccc2)C(c2cccc([N+](=O)[O-])c2)C1(C#N)C#N (configuration not stated),inactive: -21.4%,
Cc1csc2c(N3CCC(C(=O)O)CC3)ncnc12,,"inconclusive: 29.1 µM [activator, partial curve, poor fit]"
Cc1cc(C)c(OCCN(C)C)c(Cl)c1,inactive: 1.13%,
CCC(C)Sc1nc2c(c(=O)[nH]c(=O)n2C)n1CCc1ccccc1 (configuration not stated),,"inconclusive: 29.1 µM [inhibitor, partial curve, poor fit]"
COc1cccc(N(C(=O)c2nc3nccc(C)n3n2)c2nc3ccccc3s2)c1,,"inconclusive: 2.59 µM [activator, full curve]"
O=C(NCc1cccnc1)c1cccc(S(=O)(=O)N2CCCCC2)c1,,"inconclusive: 16.4 µM [inhibitor, single point]"
CC(=O)NCCc1ccc(C(=O)CSc2nnc(C3CC3)n2C2CC2)cc1,inactive: 24.3%,
COc1ccc(CCC(=O)Nc2ccc(OC)c(S(=O)(=O)N3CCCCC3)c2)cc1OC,,"inconclusive: 16.4 µM [inhibitor, single point]"
COc1ccc(/C=C2\SC(=S)N(CCCC(=O)Nc3cc(C)on3)C2=O)cc1OC,,active: 7.3 µM
COc1ccc(-c2c(C#N)c(N)nc3c2CCCCCC3)cc1OC,inactive: 10.9%,
Cc1c(O)ccc(-c2[nH]ncc2-c2nc3ccccc3s2)c1O,,"inconclusive: 32.6 µM [inhibitor, single point]"
Cc1ccc(N=Cc2cc(Cl)cc(Cl)c2O)nc1,inactive: -12.4%,
Cc1ccc(S(=O)(=O)NCCc2ccncc2)cc1C,,"inconclusive: 6.51 µM [activator, single point]"
Cc1ccccc1-c1nnc(SCC(=O)Nc2ccc3c(c2)OCCO3)n1N,inactive: -12.4%,
COc1cccc(N=c2oc3c(C)ncc(CO)c3cc2C(N)=O)c1,,"inconclusive: 20 µM [inhibitor, partial curve, poor fit]"
Cc1ccc(C(=O)NCc2ccco2)o1,inactive: -5.49%,
CSc1ccc(CN(C)C(=O)c2cc3ccccc3o2)cc1,inactive: 26.8%,
C[C@@]12C(=O)N(CC3CCCO3)CC(=O)N1[C@H]1c3ccccc3OC[C@@H]1[C@@H]2c1ccccc1 (some centres not stated),inactive: 9.5%,
